The target in this experiment is ILVAGK, β-turn-forming hexapeptide (parent peptide). Put plainly: dynamic light scattering + atomic force microscopy; 1% SDS aqueous solution, chosen to arrest peptide self-assembly; aged 0 to 28 days; 10 μM; both purified.

Results are given in words; binding and its absence hold for the method and conditions named. Some entries that bind do so weakly or less than the wild type.

Turning to ILVAGK [ILVAGK, β-turn-forming hexapeptide (parent peptide)], the binding result is “binds weakly”.
